These are yes or no findings as the source states them, for the method shown. Some binding calls cover weakened binding; strength is not graded here.

This passage reports binding results from patent US20250101127A1.

The target in the experiment is T1, peptide comprising the PAHGVTS sequence (human).
T1 sequence (peptide): PAHGVTS
Nature of the experiment: circular peptide array.

B1: MP1 monoclonal antibody (antibody, V domains shown)
VH: EVKVDETGGGLVQPGRPMKLSCVVSGITFSDYWMNWVRQSPEKGLEWVAQIRNKPYNYETYYSNSVKGRFTISRDDSKSSVYLQMNNLRAEDMGIYYCTWAMITSDGYAMDYWGQGTSVTVSS
VL: DIVMSQSPSSLAVSVGEKVTLICKSSQSLLLSSNQKNYLAWYQQKPGQSPKLLIYWASTRESGVPDRFTGSGSGTDFTLTINSVKAEDLAVYYCQQCFSYPLTFGAGTKLELK
Consider B1, for which the binding result is on record as “binds”.
